Measurements from PubChem BioAssay AID504444 (National Center for Advancing Translational Sciences (NCATS), 2011).
About 7,500 (2.1%) of roughly 360,000 compounds were called active. Inconclusive results, whose numbers are uncertain, are shown with a selection of clear calls. The call rests on the fitted dose curve; in most records, active means well fitted inhibition curve with a large enough effect; inconclusive means small, poorly fitted or top-dose-only effect, or effect the other way; inactive means flat fitted curve, though single readings scatter. Potencies of inconclusive entries are doubtful fits and often do not repeat.
Potency means the concentration at half of the fitted maximal effect.

Assay: Nrf2 qHTS screen for inhibitors; further: nearly all actives have a fitted effect of over 60% in size
Conditions: A549 ARE-Fluc reporter, luciferase luminescence, 18-24 h; series mostly up to 46 µM
Method in brief: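 A549 ARE_Fluc cells (5000/well, 5% FBS OPTI-MEM) pre-incubated 2 h, then treated with compounds 18-24 h at 37C/5% CO2 in concentration-response. CellTiter-Fluor viability read first; BugLite luciferase luminescence after 15 min at room temperature gives Nrf2 activity.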
In the case of `CCOC(=O)CN(C(=O)CSc1nnc(-c2ccc(OC)c(OC)c2)o1)c1ccc(F)cc1`, the Potency is reported as inconclusive: 29.1 µM [falling, single point].
With `O=C(CN1CCOCC1)Nc1ccc(NC(=O)c2ccccc2F)cc1` the Potency was inconclusive: 20.6 µM [falling, partial curve, poor fit].
With `Cn1c(=O)c2c(nc(CN3CCOCC3)n2CCCO)n(C)c1=O` the Potency was “inactive”.
With `Cc1nc(N)nc(N)c1/C=C/C(C)(C)c1ccc(Cl)cc1` the Potency was inconclusive: 1.03 µM [falling, full curve, poor fit].
With `CCOCCn1c(CN(Cc2ccccc2)Cc2ccccc2)nc2c1c(=O)n(C)c(=O)n2C` the Potency was inconclusive: 23.1 µM [falling, partial curve, poor fit].
In the case of `Cn1c(Cc2ccccc2)nnc1SCC(=O)N1CCN(c2ccccc2)CC1`, the Potency is reported as “inactive”.
With `COc1ccccc1C(=O)NC(C)c1cccc2ccccc12` (stereo not drawn) the Potency was inconclusive: 29.1 µM [falling, single point].
For `Cc1ccc(C(=O)/C=C/c2c[nH]c3ccccc23)cc1`, the Potency was inconclusive: 20.6 µM [activator, single point].
With `Cn1c(=O)cc2c3c(c(N4CCCCC4)ccc31)C(=O)c1ccccc1-2` the Potency was inconclusive: 13 µM [falling, partial curve, poor fit].
In the case of `Cc1nn(Cc2c(Cl)cccc2Cl)c(C)c1NC(=O)c1cn(-c2ccccc2)nc1-c1ccccc1`, the Potency is reported as active: 11.6 µM.
With `CCOC(=O)C1=C(COC(=O)c2ccc(Br)c(S(=O)(=O)N3CCOCC3)c2)NC(=O)NC1C` (stereo not drawn) the Potency was inconclusive: 25.9 µM [falling, partial curve, poor fit].
For `COc1ccc(NC(=O)CN(C)C(=O)CNC(=O)c2ccc3ccccc3c2)cc1`, the Potency was inconclusive: 23.1 µM [activator, partial curve].
For `Cc1ccc2c(c1)N(C(=O)CCC(=O)NCc1cccc(Cl)c1)CC(C)O2` (stereo not drawn), the Potency was “inactive”.
With `COc1ccc(-c2nnc(NC(=O)c3ccc(F)cc3)o2)cc1` the Potency was inconclusive: 8.2 µM [falling, partial curve, poor fit].
With `O=C(COC(=O)c1ccc(S(=O)(=O)N2CCOCC2)cc1)Nc1nc(-c2ccccc2)cs1` the Potency was inconclusive: 16.4 µM [activator, partial curve, poor fit].
With `O=Cc1cc2ccccc2nc1SCCCF` the Potency was inconclusive: 4.61 µM [activator, full curve].
For `CC(=O)c1c(C)[nH]c(C(=O)OCC(=O)Nc2sc3c(c2C#N)CCC(C)C3)c1C` (stereo not drawn), the Potency was inconclusive: 3.26 µM [falling, full curve, poor fit].
In the case of `CCN(CC)S(=O)(=O)c1ccc(C)c(NC(=O)CN2CCN(C)CC2)c1`, the Potency is reported as inconclusive: 20.6 µM [activator, single point].
In the case of `NS(=O)(=O)c1ccc(CCNC(=O)Cn2c(-c3cccs3)cc3ccccc32)cc1`, the Potency is reported as “inactive”.
In the case of `Cc1cc(C)nc(NC(N)=NCCc2ccccc2)n1`, the Potency is reported as inconclusive: 20.6 µM [falling, single point].
For `COc1ccccc1CCC(=O)NNC(=O)c1cccs1`, the Potency was inconclusive: 29.1 µM [activator, partial curve, poor fit].
With `CN(C)c1ccc(C(=O)OCC(=O)N2CCOCC2)cc1` the Potency was inconclusive: 1.03 µM [activator, full curve].
For `Brc1ccc(-c2nc(-c3cccnc3)no2)o1`, the Potency was inconclusive: 9.2 µM [activator, partial curve].
In the case of `N#Cc1cnc2c(-c3ccccc3)c(-c3ccccc3)nn2c1N`, the Potency is reported as “inactive”.
For `CCc1ccc(C(=O)COC(=O)CNC(=O)c2ccco2)cc1`, the Potency was “inactive”.
In the case of `COc1ccccc1C(=O)Nc1ccc(C)c(S(=O)(=O)N2CCCCC2)c1`, the Potency is reported as inconclusive: 29.1 µM [falling, single point].
With `COc1ccc(-n2nc3c(c2NC(=O)C(C)Oc2ccccc2)CS(=O)C3)cc1` (stereo not drawn) the Potency was “inactive”.
With `COc1ccc(S(=O)(=O)N2CCc3cc(OC)c(OC)cc3C2)cc1` the Potency was “inactive”.
In the case of `C=CCNC(=S)Nc1ccc(F)cc1F`, the Potency is reported as inconclusive: 18.4 µM [falling, partial curve].
In the case of `COc1cccc(/C=N/n2c(C)nc3ccccc32)c1OC`, the Potency is reported as inconclusive: 29.1 µM [falling, partial curve, poor fit].
For `CCCOc1ccc(Cc2c(O)nc(SC)[nH]c2=O)cc1C`, the Potency was “inactive”.
For `CSCCC(NC(=O)COc1ccccc1)C(=O)N1CCN(c2cccc(C(F)(F)F)c2)CC1` (stereo not drawn), the Potency was inconclusive: 20.6 µM [falling, single point].
With `O=C(COc1ccc2ccccc2c1)Nc1ccncc1` the Potency was inconclusive: 20.6 µM [falling, single point].
In the case of `CC1Oc2ccccc2C=C1/C=C1/SC(N2CCOCC2)=NC1=O` (stereo not drawn), the Potency is reported as inconclusive: 25.9 µM [activator, single point].
In the case of `CCc1nnc(NC(=O)c2ccc(S(=O)(=O)N(C)c3ccccc3)cc2)o1`, the Potency is reported as inconclusive: 14.6 µM [falling, partial curve].
For `Cc1ccc(Nc2n[nH]c(C)c2[N+](=O)[O-])cc1C`, the Potency was inconclusive: 6.51 µM [activator, partial curve].
With `O=C(COC(=O)c1cccc(F)c1)NC1CC1` the Potency was inconclusive: 3.26 µM [activator, partial curve, poor fit].
In the case of `O=C(CN1CCN(CCC(=O)Nc2ccccc2F)CC1)Nc1ccc(F)cc1`, the Potency is reported as “inactive”.
With `O=C(NCCc1ccccc1)C1c2ccccc2C(=O)N1Cc1cccs1` (stereo not drawn) the Potency was inconclusive: 20.6 µM [activator, partial curve, poor fit].
In the case of `Cc1nc(-c2ccc(F)cc2)c(CC(=O)NCC(=O)Nc2ccc(F)c(F)c2)s1`, the Potency is reported as “inactive”.
With `C=CCn1c(SCC(=O)Nc2cccc(S(N)(=O)=O)c2)nc2sc(C)c(C)c2c1=O` the Potency was active: 16.4 µM.
For `COc1ccc(CCNC(=O)c2c(C)oc3ncnc(N4CCOCC4)c23)c(OC)c1`, the Potency was inconclusive: 20.6 µM [activator, partial curve, poor fit].
In the case of `COc1ccc(NC(=O)COc2ccc(C)cc2)c([N+](=O)[O-])c1`, the Potency is reported as inconclusive: 29.1 µM [activator, single point].
